Data on three molecules can be found in article PMC11237551, “MRS2 missense variation at Asp216 abrogates inhibitory Mg^2+ binding, potentiating cell migration and apoptosis resistance” (Protein Science : A Publication of the Protein Society, 2024).

Where a chain is given by its changes, count along the chain named. Names and notes keep the numbering of the source. These are yes or no findings as the source states them, for the method shown. Some results given as binding are weak or reduced against the parent protein; the word gives no strength.

In experiment [1] the target is human MRS2 amino terminal domain, residues 58-333 (MRS2_(58‐333)), wild type (human) (UniProt Q9HD23). As to the kind of experiment: dynamic light scattering; higher order oligomers seen as larger hydrodynamic radii; 20 mM Tris pH 8, 150 mM NaCl, 1 mM DTT, 20°C, no Mg2+ (1.25 mg/mL in the methods, 2.5 mg/mL in the legend); both purified.
Experiment [2] addresses human MRS2 amino terminal domain, residues 58-333, D216Q mutant (MRS2_(58‐333)‐D216Q) (human) (UniProt Q9HD23). As to the kind of experiment: dynamic light scattering; higher order oligomers seen as larger hydrodynamic radii; 20 mM Tris pH 8, 150 mM NaCl, 1 mM DTT, 20°C, with 5 mM MgCl2 (1.25 mg/mL in the methods, 2.5 mg/mL in the legend); both purified.
Experiment [3] has the same target. As to the kind of experiment: dynamic light scattering; higher order oligomers seen as larger hydrodynamic radii; 20 mM Tris pH 8, 150 mM NaCl, 1 mM DTT, 20°C, no Mg2+ (1.25 mg/mL in the methods, 2.5 mg/mL in the legend); both purified.
In experiment [4] the target is human MRS2 amino terminal domain, residues 58-333, E261Q mutant (MRS2_(58‐333)‐E261Q) (human) (UniProt Q9HD23). As to the kind of experiment: condition: only with 5 mM MgCl2 (2.5 mg/mL injected); SEC-MALS; Superdex 200 Increase 10/300 GL, 100 uL injected at 2.5 mg/mL, 20 mM Tris pH 8, 150 mM NaCl, 1 mM DTT, ~10°C, running buffer and sample with 5 mM MgCl2; both purified.

B1: human MRS2 amino terminal domain, residues 58-333 (MRS2_(58‐333)), wild type (domain or fragment, UniProt Q9HD23-1 58-333, looked up)
chain: DRLRVAGEVHRFRTSDVSQATLASVAPVFTVTKFDKQGNVTSFERKKTELYQELGLQARDLRFQHVMSITVRNNRIIMRMEYLKAVITPECLLILDYRNLNLEQWLFRELPSQLSGEGQLVTYPLPFEFRAIEALLQYWINTLQGKLSILQPLILETLDALVDPKHSSVDRSKLHILLQNGKSLSELETDIKIFKESILEILDEEELLEELCVSKWSDPQVFEKSSAGIDHAEEMELLLENYYRLADDLSNAARELRVLIDDSQSIIFINLDSHRN
notes: Mitochondrial RNA splicing protein 2 (MRS2), human, amino terminal (matrix) domain, residues 58-333 of NCBI NP_065713.1 (pre-protein numbering); theoretical monomer 32.5 kDa including cloning artifacts; Surmise: E. coli, His tag removed by protease; also called MRS2‐NTD; WT; source: recombinantly expressed and purified, as described previously (Uthayabalan et al., 2023)
As to B1, the binding result in experiment [1] is “binds”.

B2: human MRS2 amino terminal domain, residues 58-333, D216Q mutant (MRS2_(58‐333)‐D216Q) (domain or fragment, UniProt Q9HD23-1 58-333, looked up)
chain: B1 chain with D159Q
notes: theoretical monomer 32,517 Da; construct details in Uthayabalan et al., 2023; also called MRS2‐NTD‐D216Q; source: recombinantly expressed and purified as described for MRS2_(58‐333) (Uthayabalan et al., 2023)
For B2, the binding result in experiment [2] and in experiment [3] was “binds” each time.

B3: human MRS2 amino terminal domain, residues 58-333, E261Q mutant (MRS2_(58‐333)‐E261Q) (domain or fragment, UniProt Q9HD23-1 58-333, looked up)
chain: B1 chain with E204Q
notes: construct details in Uthayabalan et al., 2023; also called MRS2‐NTD‐E261Q; source: recombinantly expressed and purified as described for MRS2_(58‐333) (Uthayabalan et al., 2023)
With B3, the binding entry in experiment [4] is recorded as “no binding”.
